PubChem BioAssay AID1259424 | University of Nebraska Medical Center – 2018

- Aim: 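Seek colon cancer survival genes behaving like KSR1, using a six-gene signature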 (primary screen)
- System: human HCT116 colon cancer cells
- Knock-down reagent: siRNA pool against human genes, 50 nM
- Measured: 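Log2 levels of six mRNAs (branched-DNA multiplex), adjusted by two reference genes and the non-targeting median, then scored against the average KSR1 knockdown pattern as Pearson r and euclidean distance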
- Reading the numbers: mean correlation with KSR1 profile: higher = expression change more like KSR1 knockdown
In all, the deposit lists about 14,000 reagents; this is an unselected part. 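Higher correlation or smaller distance means closer resemblance to KSR1 loss; control wells, including KSR1 knockdowns, recur on many plates.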 Further read-outs or replicates are left out here. The record does not give: the time to read-out.

For PSD2 (pleckstrin and Sec7 domain containing 2), what does the deposit list?
mean correlation with KSR1 profile: 0.794

What did the screen give for RPL21 (ribosomal protein L21)?
mean correlation with KSR1 profile: -0.212

For SLC6A3, how do the results read?
mean correlation with KSR1 profile: -0.753

What is on record for PPP1R3B (protein phosphatase 1 regulatory subunit 3B)?
mean correlation with KSR1 profile: -0.127

With HDGF (heparin binding growth factor), what does the deposit list?
mean correlation with KSR1 profile: -0.0898

For CENPA (centromere protein A), what does the deposit list?
mean correlation with KSR1 profile: -0.244

For TCP11L1 (t-complex 11 like 1), what does the deposit list?
mean correlation with KSR1 profile: 0.175

For TTC28 (tetratricopeptide repeat domain 28), how do the results read?
mean correlation with KSR1 profile: 0.744

With RPS2 (ribosomal protein S2), what was measured?
mean correlation with KSR1 profile: -0.718

What is on record for NLRP12 (NLR family pyrin domain containing 12)?
mean correlation with KSR1 profile: 0.71

How did the screen score GDAP1L1?
mean correlation with KSR1 profile: -0.442

With BACE1 (beta-secretase 1), what does the deposit list?
mean correlation with KSR1 profile: -0.504

2 consecutive records already listed, for reference:
TCP11L1 (t-complex 11 like 1) | mean correlation with KSR1 profile = 0.175
TTC28 (tetratricopeptide repeat domain 28) | mean correlation with KSR1 profile = 0.744
